PubChem BioAssay AID1224830, NIAID | 2016
Aim: 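Genes whose knock-down alters the TNF-alpha reporter response to LPS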 (primary screen). Cell system: human THP-1 monocytic leukaemia cells, TNF dual-luciferase reporter clone, PMA-differentiated to macrophage-like cells. Reagents: siRNA pool against human genes, 50 nM. Duration: LPS for 4 h, given about 3 days after siRNA transfection. Challenge: bacterial LPS (TLR4 ligand), 10 ng/ml. Measured: 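TNF firefly reporter luminescence divided by renilla, normalised to the plate median, then turned into a robust z-score for each replicate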. Scale: TNF reporter robust z-score: higher = stronger TNF reporter response to LPS. Rule for the call: 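Each well counts as active if its z-score is over 2.8 or under -1.5; controls are left without a call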.
Here is an unselected part of about 18,000 reagents. About 2,900 of them (16%) count as active. 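Calls are made per well; low scores hint the gene aids the LPS response, high scores that it dampens it.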 Repeated entries: four replicate wells of each siRNA pool.

The first 3 records, to show the layout:
FAM167A (family with sequence similarity 167 member A) | TNF reporter robust z-score = -0.2; outcome = inactive
FAM167A (family with sequence similarity 167 member A) | TNF reporter robust z-score = 0.39; outcome = inactive
FAM167A (family with sequence similarity 167 member A) | TNF reporter robust z-score = -0.61; outcome = inactive

The listing, from the first entry:
FAM167A (family with sequence similarity 167 member A) | TNF reporter robust z-score = -0.2; outcome = inactive
FAM167A (family with sequence similarity 167 member A) | TNF reporter robust z-score = 0.39; outcome = inactive
FAM167A (family with sequence similarity 167 member A) | TNF reporter robust z-score = -0.61; outcome = inactive
FAM167A (family with sequence similarity 167 member A) | TNF reporter robust z-score = -0.67; outcome = inactive
HOXB4 (homeobox B4) | TNF reporter robust z-score = 1.93; outcome = inactive
HOXB4 (homeobox B4) | TNF reporter robust z-score = 1.53; outcome = inactive
HOXB4 (homeobox B4) | TNF reporter robust z-score = 0.83; outcome = inactive
HOXB4 (homeobox B4) | TNF reporter robust z-score = 1.26; outcome = inactive
ZFHX3 (zinc finger homeobox 3) | TNF reporter robust z-score = -0.39; outcome = inactive
ZFHX3 (zinc finger homeobox 3) | TNF reporter robust z-score = -0.72; outcome = inactive
ZFHX3 (zinc finger homeobox 3) | TNF reporter robust z-score = -1.01; outcome = inactive
ZFHX3 (zinc finger homeobox 3) | TNF reporter robust z-score = -0.09; outcome = inactive
PHYHD1 (phytanoyl-CoA dioxygenase domain containing 1) | TNF reporter robust z-score = 1; outcome = inactive
PHYHD1 (phytanoyl-CoA dioxygenase domain containing 1) | TNF reporter robust z-score = 1.25; outcome = inactive
PHYHD1 (phytanoyl-CoA dioxygenase domain containing 1) | TNF reporter robust z-score = 0.98; outcome = inactive
PHYHD1 (phytanoyl-CoA dioxygenase domain containing 1) | TNF reporter robust z-score = 1.94; outcome = inactive
FAM124B (family with sequence similarity 124 member B) | TNF reporter robust z-score = 0.45; outcome = inactive
FAM124B (family with sequence similarity 124 member B) | TNF reporter robust z-score = 0.02; outcome = inactive
FAM124B (family with sequence similarity 124 member B) | TNF reporter robust z-score = -0.69; outcome = inactive
FAM124B (family with sequence similarity 124 member B) | TNF reporter robust z-score = 0.17; outcome = inactive
DLG4 (discs large MAGUK scaffold protein 4) | TNF reporter robust z-score = -0.45; outcome = inactive
DLG4 (discs large MAGUK scaffold protein 4) | TNF reporter robust z-score = 0.57; outcome = inactive
DLG4 (discs large MAGUK scaffold protein 4) | TNF reporter robust z-score = -0.33; outcome = inactive
DLG4 (discs large MAGUK scaffold protein 4) | TNF reporter robust z-score = 0.21; outcome = inactive
SLC25A29 | TNF reporter robust z-score = -0.28; outcome = inactive
SLC25A29 | TNF reporter robust z-score = 0.3; outcome = inactive
SLC25A29 | TNF reporter robust z-score = -0.47; outcome = inactive
SLC25A29 | TNF reporter robust z-score = 0.2; outcome = inactive
SHC3 (SHC adaptor protein 3) | TNF reporter robust z-score = -1.34; outcome = inactive
SHC3 (SHC adaptor protein 3) | TNF reporter robust z-score = -0.55; outcome = inactive
SHC3 (SHC adaptor protein 3) | TNF reporter robust z-score = -0.63; outcome = inactive
SHC3 (SHC adaptor protein 3) | TNF reporter robust z-score = -0.48; outcome = inactive
